One compound from patent publication US20030199514A1, “Methods for improving efficacy of treatment with growth hormone secretagogues” (priority 2002, published 2003) can be followed below.

For the data set, the system named is urinary nitrogen excretion. Put plainly: Phase I double-blind, placebo-controlled, multiple dose evaluation of test compound in calorically restricted, obese men and women. It counts as in vivo, human. How it is done:
Phase I Double-Blind, Placebo-Controlled, Multiple Dose Evaluation of Test Compound in Calorically Restricted, Obese Men and Women
A total of 48 obese subjects, with a negative exercise tolerance test and without significant other medical problems, were recruited for this study and placed on a caloric-restricted diet. Subjects were randomized to either placebo, 3 mg po tid, 6 mg po tid or 10 mg po qam of the test compound, 2-amino-N-[2-(3a-(R)-benzyl-2-methyl-3-oxo-2,3,3a,4,6,7-hexahydro-pyrazolo[4,3-c]pyridin-5-yl)-1-(R)-benzyloxymethyl-2-oxo-ethyl]-isobutyramide, L-tartrate, for a total of seven days.
The primary efficacy outcome variable of this study was urinary nitrogen excretion. Breakdown of protein (protein catabolism) may be measured by urinary nitrogen excretion. The covariates determined in this study included: 1.) gender; 2.) serum total and free testosterone; and 3.) serum total and free estradiol.

Each structure is given as a SMILES string.

As for `CN1N=C2CCN(C(=O)[C@@H](COCc3ccccc3)NC(=O)C(C)(C)N)C[C@@]2(Cc2ccccc2)C1=O.O=C(O)C(O)C(O)C(=O)O` [test compound, 2-amino-N-[2-(3a-(R)-benzyl-2-methyl-3-oxo-2,3,3a,4,6,7-hexahydro-pyrazolo[4,3-c]pyridin-5-yl)-1-(R)-benzyloxymethyl-2-oxo-ethyl]-isobutyramide, L-tartrate], the “correlation of serum free testosterone with urinary nitrogen excretion (anabolic response to test compound)” value is, setting by setting: (among men) “significantly (although weakly) negatively correlated”; (in women) “even stronger negative correlation”.
